PubChem BioAssay AID1224830 – NIAID – 2016
Screen: 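Host factors that control LPS-induced TNF expression in human macrophages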 (primary screen). Cells: human THP-1 monocytic leukaemia cells, TNF dual-luciferase reporter clone, PMA-differentiated to macrophage-like cells. Reagents: siRNA pool against human genes, 50 nM. Timing: LPS for 4 h, given about 3 days after siRNA transfection. Conditions: bacterial LPS (TLR4 ligand), 10 ng/ml. Measured: 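TNF firefly reporter luminescence divided by renilla, normalised to the plate median, then turned into a robust z-score for each replicate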. Scale: TNF reporter robust z-score: higher = stronger TNF reporter response to LPS. Hit rule: 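Each well counts as active if its z-score is over 2.8 or under -1.5; controls are left without a call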.
This is one part, drawn at random, of about 18,000 reagents tested. Over the whole deposit, about 2,900 (16%) are marked active. 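Calls are made per well; low scores hint the gene aids the LPS response, high scores that it dampens it.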 Repeated entries: four replicate wells of each siRNA pool.

BOK (GeneID 666) [SID315447576] | TNF reporter robust z-score: 3.25; activity call: active
BOK (GeneID 666) [SID315447576] | TNF reporter robust z-score: 2.65; activity call: inactive
BOK (GeneID 666) [SID315447576] | TNF reporter robust z-score: 2.94; activity call: active
BOK (GeneID 666) [SID315447576] | TNF reporter robust z-score: 3.22; activity call: active
SERHL (GeneID 94009) [SID315461101] | TNF reporter robust z-score: 0.86; activity call: inactive
SERHL (GeneID 94009) [SID315461101] | TNF reporter robust z-score: 0.2; activity call: inactive
SERHL (GeneID 94009) [SID315461101] | TNF reporter robust z-score: 0.12; activity call: inactive
SERHL (GeneID 94009) [SID315461101] | TNF reporter robust z-score: -0.4; activity call: inactive
C1orf53 (GeneID 388722) [SID315464516] | TNF reporter robust z-score: 1.2; activity call: inactive
C1orf53 (GeneID 388722) [SID315464516] | TNF reporter robust z-score: 0.45; activity call: inactive
C1orf53 (GeneID 388722) [SID315464516] | TNF reporter robust z-score: 2.07; activity call: inactive
C1orf53 (GeneID 388722) [SID315464516] | TNF reporter robust z-score: 0.56; activity call: inactive
OR6F1 (GeneID 343169) [SID315464151] | TNF reporter robust z-score: -0.71; activity call: inactive
OR6F1 (GeneID 343169) [SID315464151] | TNF reporter robust z-score: -0.47; activity call: inactive
OR6F1 (GeneID 343169) [SID315464151] | TNF reporter robust z-score: -0.17; activity call: inactive
OR6F1 (GeneID 343169) [SID315464151] | TNF reporter robust z-score: -0.58; activity call: inactive
ZMYM6 (GeneID 9204) [SID315453120] | TNF reporter robust z-score: 0.06; activity call: inactive
ZMYM6 (GeneID 9204) [SID315453120] | TNF reporter robust z-score: -0.37; activity call: inactive
ZMYM6 (GeneID 9204) [SID315453120] | TNF reporter robust z-score: -0.31; activity call: inactive
ZMYM6 (GeneID 9204) [SID315453120] | TNF reporter robust z-score: -0.16; activity call: inactive
FMR1NB (GeneID 158521) [SID315462666] | TNF reporter robust z-score: 1.5; activity call: inactive
FMR1NB (GeneID 158521) [SID315462666] | TNF reporter robust z-score: 2.51; activity call: inactive
FMR1NB (GeneID 158521) [SID315462666] | TNF reporter robust z-score: 1.95; activity call: inactive
FMR1NB (GeneID 158521) [SID315462666] | TNF reporter robust z-score: -0.25; activity call: inactive
SZT2 (GeneID 23334) [SID315455168] | TNF reporter robust z-score: 0.03; activity call: inactive
SZT2 (GeneID 23334) [SID315455168] | TNF reporter robust z-score: 0.51; activity call: inactive
SZT2 (GeneID 23334) [SID315455168] | TNF reporter robust z-score: 0.15; activity call: inactive
SZT2 (GeneID 23334) [SID315455168] | TNF reporter robust z-score: 0.1; activity call: inactive
SZT2 (GeneID 23334) [SID315462416] | TNF reporter robust z-score: -0.26; activity call: inactive
SZT2 (GeneID 23334) [SID315462416] | TNF reporter robust z-score: -1.01; activity call: inactive
SZT2 (GeneID 23334) [SID315462416] | TNF reporter robust z-score: -0.21; activity call: inactive
TMED3 (GeneID 23423) [SID315455233] | TNF reporter robust z-score: -1.45; activity call: inactive
TMED3 (GeneID 23423) [SID315455233] | TNF reporter robust z-score: -1.38; activity call: inactive
TMED3 (GeneID 23423) [SID315455233] | TNF reporter robust z-score: -1.51; activity call: active
POMT2 (GeneID 29954) [SID315456244] | TNF reporter robust z-score: -0.92; activity call: inactive
POMT2 (GeneID 29954) [SID315456244] | TNF reporter robust z-score: -0.48; activity call: inactive
POMT2 (GeneID 29954) [SID315456244] | TNF reporter robust z-score: -0.28; activity call: inactive
POMT2 (GeneID 29954) [SID315456244] | TNF reporter robust z-score: -0.13; activity call: inactive
POTED (GeneID 317754) [SID315463937] | TNF reporter robust z-score: -0.95; activity call: inactive
POTED (GeneID 317754) [SID315463937] | TNF reporter robust z-score: -0.02; activity call: inactive
POTED (GeneID 317754) [SID315463937] | TNF reporter robust z-score: -0.41; activity call: inactive
POTED (GeneID 317754) [SID315463937] | TNF reporter robust z-score: -0.2; activity call: inactive
PLEKHA8P1 (GeneID 51054) [SID315456427] | TNF reporter robust z-score: -1.02; activity call: inactive
PLEKHA8P1 (GeneID 51054) [SID315456427] | TNF reporter robust z-score: -0.28; activity call: inactive
PLEKHA8P1 (GeneID 51054) [SID315456427] | TNF reporter robust z-score: -0.96; activity call: inactive
PLEKHA8P1 (GeneID 51054) [SID315456427] | TNF reporter robust z-score: -0.95; activity call: inactive
NUP93 (GeneID 9688) [SID315453483] | activity call: inactive
NUP93 (GeneID 9688) [SID315453483] | TNF reporter robust z-score: 0.14; activity call: inactive
NUP93 (GeneID 9688) [SID315453483] | TNF reporter robust z-score: -0.07; activity call: inactive
NUP93 (GeneID 9688) [SID315453483] | TNF reporter robust z-score: -0.23; activity call: inactive

Records above with an active call, once more:
BOK (GeneID 666) [SID315447576] | TNF reporter robust z-score: 3.25; activity call: active
BOK (GeneID 666) [SID315447576] | TNF reporter robust z-score: 2.94; activity call: active
BOK (GeneID 666) [SID315447576] | TNF reporter robust z-score: 3.22; activity call: active
TMED3 (GeneID 23423) [SID315455233] | TNF reporter robust z-score: -1.51; activity call: active
